Measured values: the supplement of paper PMC4371806
The full ranking holds about 1,600 compounds; the median of “plate-normalized OD600 growth (mean of duplicates)” is about 0.31, and the lowest 2% start at about 0.23. The list shows a part of the results.

System: Escherichia coli BW25113
Experiment: plate-normalized OD600 growth (mean of duplicates) (OD600 (normalized)); higher = more growth (less inhibition)
Conditions: 10 µM
Protocol: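 E. coli BW25113 in LB (100 µl, 96-well, no shaking) was exposed to 10 µM of each compound (here the ChemBridge subset of a ~30,000-member library) and grown at 37°C for 24 h or 15°C for 48 h, in duplicate. Growth was read as OD600 and the duplicate ODs were normalized across screening plates to correct plate-to-plate variation.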

Row | SMILES | plate-normalized OD600 growth (temperature: 15°C, 48 h) | plate-normalized OD600 growth (temperature: 37°C, 24 h)
1 | CN(C)c1ccc(/C=C/c2ccc3ccccc3n2)cc1 | 0.242 | 0.631
2 | OC1CCN(Cc2ccc(Cl)cc2Cl)CC1 | 0.254 | 0.605
3 | CN1C(=O)C(C)(C)N(C(=O)c2cccc([N+](=O)[O-])c2)c2ccccc21 | 0.253 | 0.643
4 | Cc1[nH]nc2c1C(c1cc3c(cc1Cl)OCO3)C(C#N)=C(N)O2 (stereo not given) | 0.253 | 0.616
5 | COc1ccc(O)c(CN2CCCC(C)C2)c1 (stereo not given) | 0.27 | 0.602
6 | CC1(C)CC(n2c(NN)nc3c(c2=O)C2(CCCCC2)Cc2ccccc2-3)CCO1 (stereo not given) | 0.255 | 0.631
7 | Nc1nc2nc(-c3ccccc3)cc(=O)n2[nH]1 | 0.236 | 0.613
8 | CC(=O)c1ccc(NS(=O)(=O)c2cc(S(=O)(=O)c3ccccc3)ccc2C)cc1 | 0.278 | 0.649
9 | COc1ccc(N2C(=O)CC(N3CCN(c4ccc(F)cc4)CC3)C2=O)cc1 (stereo not given) | 0.24 | 0.59
10 | Brc1ccccc1OCCCN1CCOCC1 | 0.228 | 0.612
11 | CCCCOc1ccc(/C=C(/C#N)c2nc3ccccc3[nH]2)cc1 | 0.261 | 0.613
12 | COc1cc([N+](=O)[O-])c(C)cc1NC(C)=O | 0.262 | 0.63
13 | CSc1ccc(CN2CCCN(C)CC2)cc1 | 0.259 | 0.649
14 | O=C(O)C1Cc2c([nH]c3ccccc23)C(c2cccc(Br)c2)N1 (stereo not given) | 0.264 | 0.636
15 | COc1ccc(N(CCC#N)S(=O)(=O)c2cccc3nsnc23)cc1 | 0.248 | 0.614
16 | COc1ccc(/C(C#N)=C/c2ccc3c(c2)OCO3)cc1OC | 0.247 | 0.613
17 | CN(C)c1nc(-c2ccccc2O)nc2ccccc12 | 0.227 | 0.603
18 | Brc1ccc(C2NCCc3c2[nH]c2ccccc32)cc1 (stereo not given) | 0.233 | 0.6
19 | Cc1onc(-c2ccccc2Cl)c1C(=O)N1CC(C)OC(C)C1 (stereo not given) | 0.279 | 0.661
20 | CCCOc1ccccc1/C=C/c1[nH]c(=O)[nH]c(=O)c1[N+](=O)[O-] | 0.251 | 0.62
21 | C=CCc1c(C)nc(SCCCC)[nH]c1=O | 0.237 | 0.635
22 | O=[N+]([O-])c1ccc(C2=CSC3=NCCN23)cc1 | 0.252 | 0.63
23 | O=C1CC(N2CCN(c3ccc(F)cc3)CC2)C(=O)N1c1ccc(I)cc1 (stereo not given) | 0.242 | 0.619
24 | O=C1CC(c2ccc([N+](=O)[O-])cc2)=NN1c1cc(S(=O)(=O)O)ccc1Cl | 0.263 | 0.623
25 | CC(c1ccccc1)C1CC(=O)N(c2ccccc2)C1=O (stereo not given) | 0.255 | 0.602
26 | CC(=O)Nc1cc2nc3ccccc3nc2cc1NC(C)=O | 0.235 | 0.656
27 | Cn1c(SCC(=O)NC2CCCCC2)nc2sc3c(c2c1=O)CCCC3 | 0.267 | 0.648

Row | SMILES | plate-normalized OD600 growth (temperature: 15°C, 48 h) | plate-normalized OD600 growth (temperature: 37°C, 24 h)
28 | Cc1cc(N)ccc1-c1ccc([N+](=O)[O-])cc1C | 0.27 | 0.624
29 | COc1ccc(NCCNc2ccc(OC)cc2)cc1 | 0.231 | 0.6
30 | CC1CN(C/C=C/c2ccccc2[N+](=O)[O-])CC(C)O1 (stereo not given) | 0.252 | 0.609
31 | CN(C)c1ccc(C(O)(c2ccccc2)c2ccccc2)cc1 | 0.249 | 0.624
32 | COc1ccc2[nH]cc(CCNC(N)=O)c2c1 | 0.245 | 0.623
33 | O=C(Nc1ccc(Br)cc1)c1cccc(S(=O)(=O)Nc2ccccn2)c1 | 0.244 | 0.586
34 | CC(=O)c1ccc(N2CCN(CC3=CC[C@H]4C[C@@H]3C4(C)C)CC2)cc1 | 0.249 | 0.607
35 | O=C(Nc1ccccc1F)c1ccc([N+](=O)[O-])o1 | 0.201 | 0.592
36 | COCCCNC(=O)c1cccc(Cl)c1 | 0.249 | 0.608
37 | CCN(CC)CCNC(=O)c1cc([N+](=O)[O-])c(N(C)C)cc1OC | 0.258 | 0.607
38 | CCOc1ccccc1NS(=O)(=O)N(C)C | 0.258 | 0.62
39 | COc1cccc(OC)c1C(=O)N1CCN(C(=O)CC(C)C)CC1 | 0.237 | 0.622
40 | Fc1ccccc1N1CCN(CCCc2ccccc2)CC1 | 0.248 | 0.618
41 | c1coc(CN2CCN(C3CCCCCC3)CC2)c1 | 0.246 | 0.612
42 | COc1ccc(CC(=O)N2CCOCC2)cc1 | 0.245 | 0.631
43 | COc1ccc(C(=O)c2sc3nc(C)cc(C)c3c2N)cc1 | 0.263 | 0.644
44 | Cc1cc(C)nc(SCc2csc(N)n2)n1 | 0.243 | 0.61
45 | CC1CCCCC1NCc1ccc([N+](=O)[O-])cc1 (stereo not given) | 0.251 | 0.62
46 | CN1CCCN(Cc2ccc3c(c2)OCO3)CC1 | 0.271 | 0.64
47 | CCC(CC)NC(=O)N1CCOCC1 | 0.238 | 0.618
48 | COCc1cc(=O)n2[nH]c(Cc3ccccc3)c(-c3ccc(OC)cc3)c2n1 | 0.232 | 0.616
49 | CCOC(=O)N1CCN(Cc2ccc(N(C)C)cc2)CC1 | 0.219 | 0.58
50 | Cc1cc(-c2ccc([N+](=O)[O-])cc2)c(C#N)c(N)n1 | 0.229 | 0.596
51 | Cc1cc(=O)[nH]c(SCC(=O)c2ccc(F)cc2)n1 | 0.254 | 0.652
52 | COc1ccc(C(=O)NCCCN2CCOCC2)cc1 | 0.255 | 0.631
53 | CN(C)c1nc(N)nc(-c2ccco2)n1 | 0.226 | 0.632
54 | O=Cc1cc2c3c(c1O)CCCN3CCC2 | 0.232 | 0.598

An excerpt of these results, as tab-separated lines.
Row	SMILES	plate-normalized OD600 growth (temperature: 15°C, 48 h)	plate-normalized OD600 growth (temperature: 37°C, 24 h)
10	Brc1ccccc1OCCCN1CCOCC1	0.228	0.612
25	CC(c1ccccc1)C1CC(=O)N(c2ccccc2)C1=O (stereo not given)	0.255	0.602
27	Cn1c(SCC(=O)NC2CCCCC2)nc2sc3c(c2c1=O)CCCC3	0.267	0.648
50	Cc1cc(-c2ccc([N+](=O)[O-])cc2)c(C#N)c(N)n1	0.229	0.596

Next compounds.

Row | SMILES | plate-normalized OD600 growth (temperature: 15°C, 48 h) | plate-normalized OD600 growth (temperature: 37°C, 24 h)
55 | Cc1c(N=CN(C)C)c(=O)n(-c2ccccc2)n1C | 0.261 | 0.634
56 | CC(=O)Nc1cccc(NC(=O)c2cccs2)c1 | 0.233 | 0.614
57 | CCC(C)NC(=O)C(Cc1ccc([N+](=O)[O-])cc1)N1C(=O)c2ccccc2C1=O (stereo not given) | 0.253 | 0.618
58 | Cc1ccc(C(=O)N2CCN(c3ccccc3)CC2)cc1 | 0.268 | 0.629
59 | Cc1ccc(N2C(=O)CC(N3CCN(c4ccc([N+](=O)[O-])cc4)CC3)C2=O)c(C)c1 (stereo not given) | 0.218 | 0.612
60 | O=C(NC1CCCCC1NC(=O)C1CC1c1ccccc1)C1CC1c1ccccc1 (stereo not given) | 0.264 | 0.622
61 | CC(=O)N1CCN(C2CCN(CCc3ccccc3)CC2)CC1 | 0.249 | 0.63
62 | C/C=C(\CS(=O)(=O)c1ccccc1)S(=O)(=O)c1ccccc1 | 0.246 | 0.624
63 | CCN(CC)C(=O)c1sc2ccccc2c1Cl | 0.246 | 0.603
64 | Cc1ccc(C(=O)NCC(O)c2ccccc2)cc1 (stereo not given) | 0.243 | 0.6
65 | O=C(Nc1nc(-c2ccccc2)cs1)c1c(O)c2ccccc2[nH]c1=O | 0.252 | 0.62
66 | CSc1ccc(CN2CCN(S(=O)(=O)c3ccc([N+](=O)[O-])cc3)CC2)cc1 | 0.27 | 0.625
67 | Oc1c(Cl)cc(Cl)cc1C(C#Cc1ccccc1)N1CCOCC1 (stereo not given) | 0.262 | 0.62
68 | Cc1ccc(CN(C)CCc2ccccn2)cc1 | 0.272 | 0.619
69 | Cc1[nH]n(-c2ccccc2)c(=O)c1C=O | 0.224 | 0.605
70 | O=C(O)c1cccc(NC(=O)c2ccco2)c1 | 0.252 | 0.618
71 | CC(C)(C)c1csc(NC(=O)c2ccco2)n1 | 0.229 | 0.608
72 | Cc1ccc2ncnc(-c3ccccc3)c2c1 | 0.253 | 0.621
73 | CC1(C)CC(n2c(NCCO)nc3c(c2=O)C2(CCCCC2)Cc2ccccc2-3)CCO1 (stereo not given) | 0.251 | 0.631
74 | COc1ccc(N(C(C)=O)c2nc3ccccc3[nH]2)cc1 | 0.25 | 0.621
75 | CC(C)CS(=O)(=O)c1cccs1 | 0.253 | 0.616
76 | CCCSc1nc(O)c(CC)c(=O)n1-c1ccccc1 | 0.257 | 0.61
77 | Clc1ccccc1CN1CCc2c([nH]c3ccccc23)C1 | 0.246 | 0.636
78 | COc1ccc(C)cc1NCc1ccc(SC)cc1 | 0.282 | 0.644
79 | CC(C)(C)c1ccc(OCCCn2ccnc2)cc1 | 0.251 | 0.606
80 | CCCN(Cc1cccc([N+](=O)[O-])c1)CC1CC1 | 0.246 | 0.607
81 | N#C/C(=C/c1ccc(F)cc1)c1nc(-c2ccccc2)cs1 | 0.238 | 0.598

Row | SMILES | plate-normalized OD600 growth (temperature: 15°C, 48 h) | plate-normalized OD600 growth (temperature: 37°C, 24 h)
82 | COc1ccc(C2(CNC(C)=O)CCOCC2)cc1OC | 0.259 | 0.629
83 | CC1(C)CC(=O)C2=C(C1)Nc1ccccc1NC2c1cc2c(cc1[N+](=O)[O-])OCO2 (stereo not given) | 0.225 | 0.606
84 | CC(=O)c1ccc(OCCOc2ccc(C(C)=O)cc2)cc1 | 0.248 | 0.607
85 | NC(Cc1c[nH]c2ccc(OCc3ccccc3)cc12)C(=O)O (stereo not given) | 0.243 | 0.586
86 | O=S(=O)(c1ccc(Cl)c(Cl)c1)N1CCCCC1 | 0.252 | 0.619
87 | O=C(C(Cl)Cl)N1CCN(c2ccc([N+](=O)[O-])cc2)CC1 | 0.251 | 0.63
88 | COc1cccc(N2CCN(C/C=C/c3ccccc3[N+](=O)[O-])CC2)c1 | 0.257 | 0.637
89 | COc1ccccc1OCCSc1nc2ccccc2o1 | 0.261 | 0.608
90 | Cc1cc(SCC(C)C)n2ncnc2n1 | 0.248 | 0.656
91 | N#CCCS(=O)(=O)c1ccc(Br)cc1 | 0.258 | 0.63
92 | Cc1c(C(=O)NN2CCN(C)CC2)cccc1[N+](=O)[O-] | 0.265 | 0.618
93 | COc1ccc(C(=O)N2CCN(CC(=O)N3CCOCC3)CC2)cc1 | 0.236 | 0.646
94 | COc1cc(NC(=O)c2ccc([N+](=O)[O-])cc2)c(OC)cc1NC(C)=O | 0.257 | 0.622
95 | COc1ccc(CN2CCSCC2)c(C)c1C | 0.247 | 0.642
96 | O=C1C(=O)c2ccccc2C(O)=C1c1ccc(Cl)cc1 | 0.274 | 0.651
97 | Cc1cc([N+](=O)[O-])nn1CC(=O)NCC(C)C | 0.264 | 0.617
98 | C(=C\c1cc(/C=C/c2ccccc2)ncn1)/c1ccccc1 | 0.252 | 0.626
99 | Nc1ccc(C(=O)Nc2ccc(NC(=O)c3ccc(N)cc3)cc2)cc1 | 0.254 | 0.612
100 | Nn1c(CCC(=O)O)nc2sc3c(c2c1=O)CCCC3 | 0.25 | 0.635
101 | CCC1CCC(NCc2cccc(OC)c2OC)CC1 (stereo not given) | 0.253 | 0.603
102 | Cc1ccc(C(C)NC(=O)c2ccccc2)c(C)c1 (stereo not given) | 0.267 | 0.619
103 | CC(C)(C)C1=C[C@@H](CO)C[C@@H](CO)C1 | 0.248 | 0.635
104 | COc1ccc(-c2csc(C(C#N)=Cc3ccc(F)cc3)n2)cc1OC | 0.244 | 0.612
105 | Oc1cc(-c2nc3ccccc3o2)c(O)cc1-c1nc2ccccc2o1 | 0.247 | 0.63
